Article PMC11905336, “Pyrrole‐Tethered Bisbenzoxazole Derivatives: Apoptosis‐Inducing Agents Targeting Breast Cancer Cells” (Chemical Biology & Drug Design, 2025)
Read-outs that look alike come from different tables or passages of the source.

Test system: MCF‐7 cell lines
Assay: MTT assay, cytotoxicity on MCF-7 cells
Type: cell-based
Conditions: Homo sapiens
Procedure: The cytotoxic effects of PTB derivatives on MCF‐7 breast cancer cells were evaluated using the MTT assay at various concentrations (100 nM, 1 μM, 10 μM, 50 μM, and 100 μM). […] These compounds were selected for further investigation based on their potent activity.
The human dermal fibroblast (HDFa) and human breast cancer cells (MCF‐7) were obtained from the American Type Culture Collection (ATCC; Manassas, VA, USA). Cells were cultured in RPMI medium (MCF‐7) and DMEM medium (HDFa) was supplemented with 10% FBS, 1% penicillin–streptomycin, 1% amphotericin, and 2.5% L‐glutamine at 37°C in a 5% CO2 incubator.
MTT Method. The MTT method is used to detect and quantify living organisms cultured with the method colorimetrically. This method relies on intact mitochondria cleaving the tetrazolium ring of the MTT dye. The MTT substance is absorbed and reduced to a colorful, water‐insoluble formazan by a mitochondria‐dependent reaction. Cell viability is measured based on the MTT reduction property, and the density of dye obtained from MTT analysis indicates the number of viable cells. In this study, cell viability was assessed using the MTT (0.5 mg/mL) solution that was added to each well. […] After adding properties to cultures, they were kept at 37°C for 24 h and overnight. Then, at 48 and 72 h after applying the molecules, 10 μL of MTT was added to each well and incubated under similar conditions for 4 h. Absorbance spectrophotometry was performed at a wavelength of 570 nm using the IC50 = [(control absorbents‐sample absorbents)/control absorbents] × 100 calculation method (Khorsandi et al. [2017]).

With `CC/C(=C(\c1ccccc1)c1ccc(OCCN(C)C)cc1)c1ccccc1` [Tamoxifen, reference compound] the IC50 (MCF7, 24 h, read-out: IC50 (μM) for MCF‐7 cell lines, 24 h) was 8.93 ± 1.97 µM, the IC50 (MCF7, 72 h, read-out: IC50 (μM) for MCF‐7 cell lines, 72 h) was 7.59 ± 0.87 µM and the IC50 (MCF7, read-out: IC50 (μM) for MCF‐7 cell lines, 48 h) was 8.03 ± 1.58 µM.
